Test results published in PMC9679424, “The CARD8 T60 variant associates with NLRP1 and negatively regulates its activation” (Frontiers in Immunology, 2022).
Results are given in words; binding and its absence hold for the method and conditions named. In cells and extracts the contact can be indirect. Some entries that bind do so weakly or less than the wild type. For part of these data: Sequences can lack the tags named with a protein. Blank lines part the entries; values can stand above or below the molecule they belong to.

Amino acid sequences for entries named in this document (tags omitted).
UniProt Q9ULZ3: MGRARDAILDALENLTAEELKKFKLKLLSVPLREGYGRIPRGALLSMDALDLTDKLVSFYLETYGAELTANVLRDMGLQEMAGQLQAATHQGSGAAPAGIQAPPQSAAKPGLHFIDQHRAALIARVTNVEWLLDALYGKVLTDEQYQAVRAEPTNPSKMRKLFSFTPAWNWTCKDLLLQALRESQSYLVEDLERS

Experiments:
CARD8-T60-Strep (human) = CARD8-T60-Strep (human) (UniProt Q9Y2G2); test: co-IP; HEK 293T cells transiently co-transfected, 28 hours; lysate (20 mM Tris-HCl pH 7.5, 100 mM KCl, 5 mM MgCl2, 0.3% NP-40); precipitation by the Strep tag of CARD8-T60-Strep (anti-Strep; Strep-Tactin gel) overnight at 4 °C; immunoblotting
[1] = target: T1, NLRP1-FLAG truncation mutant: FIIND domain (human) (UniProt Q9C000); test: co-IP; HEK 293T cells transiently co-transfected, 28 hours; lysate (20 mM Tris-HCl pH 7.5, 100 mM KCl, 5 mM MgCl2, 0.3% NP-40) on anti-FLAG M2 agarose beads overnight at 4 °C; immunoblotting
T1 sequence: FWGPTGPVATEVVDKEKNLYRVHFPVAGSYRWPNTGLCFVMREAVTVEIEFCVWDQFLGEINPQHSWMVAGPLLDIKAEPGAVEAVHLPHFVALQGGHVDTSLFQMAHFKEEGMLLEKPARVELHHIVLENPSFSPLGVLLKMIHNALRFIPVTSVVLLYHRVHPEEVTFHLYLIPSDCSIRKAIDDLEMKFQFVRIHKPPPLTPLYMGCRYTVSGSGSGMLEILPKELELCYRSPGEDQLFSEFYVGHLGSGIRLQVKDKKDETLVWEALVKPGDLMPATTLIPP

[2] = target: T2, NLRP1-FLAG truncation mutant: NACHT domain (human) (UniProt Q9C000); test: as above
T2 sequence: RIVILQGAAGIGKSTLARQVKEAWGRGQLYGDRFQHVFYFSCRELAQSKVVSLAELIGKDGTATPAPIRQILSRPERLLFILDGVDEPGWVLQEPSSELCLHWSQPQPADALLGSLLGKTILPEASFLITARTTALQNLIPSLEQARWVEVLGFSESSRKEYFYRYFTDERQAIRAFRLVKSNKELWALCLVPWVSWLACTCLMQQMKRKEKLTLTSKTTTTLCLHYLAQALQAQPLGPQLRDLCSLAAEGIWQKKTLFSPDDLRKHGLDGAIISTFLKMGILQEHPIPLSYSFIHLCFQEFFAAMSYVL

[3] = target: T3, CARD8-T48-FLAG (human), Q9Y2G2; test: as above; conditions: remark: other sources report otherwise
T3 chain: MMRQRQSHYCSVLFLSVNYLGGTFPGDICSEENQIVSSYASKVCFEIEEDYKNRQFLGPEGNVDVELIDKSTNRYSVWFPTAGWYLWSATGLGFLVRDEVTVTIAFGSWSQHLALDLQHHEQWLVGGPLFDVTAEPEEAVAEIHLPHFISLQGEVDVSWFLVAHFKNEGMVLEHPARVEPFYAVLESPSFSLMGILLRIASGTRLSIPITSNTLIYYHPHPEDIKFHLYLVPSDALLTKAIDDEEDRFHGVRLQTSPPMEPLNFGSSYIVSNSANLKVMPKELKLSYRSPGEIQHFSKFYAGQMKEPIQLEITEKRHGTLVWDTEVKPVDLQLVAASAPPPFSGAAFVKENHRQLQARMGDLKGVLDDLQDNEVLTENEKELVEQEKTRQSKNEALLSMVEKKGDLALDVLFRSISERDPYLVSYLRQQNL

CARD8-T60-FLAG (human) = CARD8-T60-FLAG (human) (UniProt Q9Y2G2); test: as above
[4] = target: CARD8-T48-Q152QA-FLAG (human) (UniProt Q9Y2G2); test: as above

Molecule: ASC-FLAG (from UniProt Q9ULZ3 1-195)
binding (CARD8-T60-Strep (human)): no binding

B3: NLRP1-Strep (protein, UniProt Q9C000-1 1-1473)
chain: MAGGAWGRLACYLEFLKKEELKEFQLLLANKAHSRSSSGETPAQPEKTSGMEVASYLVAQYGEQRAWDLALHTWEQMGLRSLCAQAQEGAGHSPSFPYSPSEPHLGSPSQPTSTAVLMPWIHELPAGCTQGSERRVLRQLPDTSGRRWREISASLLYQALPSSPDHESPSQESPNAPTSTAVLGSWGSPPQPSLAPREQEAPGTQWPLDETSGIYYTEIREREREKSEKGRPPWAAVVGTPPQAHTSLQPHHHPWEPSVRESLCSTWPWKNEDFNQKFTQLLLLQRPHPRSQDPLVKRSWPDYVEENRGHLIEIRDLFGPGLDTQEPRIVILQGAAGIGKSTLARQVKEAWGRGQLYGDRFQHVFYFSCRELAQSKVVSLAELIGKDGTATPAPIRQILSRPERLLFILDGVDEPGWVLQEPSSELCLHWSQPQPADALLGSLLGKTILPEASFLITARTTALQNLIPSLEQARWVEVLGFSESSRKEYFYRYFTDERQAIRAFRLVKSNKELWALCLVPWVSWLACTCLMQQMKRKEKLTLTSKTTTTLCLHYLAQALQAQPLGPQLRDLCSLAAEGIWQKKTLFSPDDLRKHGLDGAIISTFLKMGILQEHPIPLSYSFIHLCFQEFFAAMSYVLEDEKGRGKHSNCIIDLEKTLEAYGIHGLFGASTTRFLLGLLSDEGEREMENIFHCRLSQGRNLMQWVPSLQLLLQPHSLESLHCLYETRNKTFLTQVMAHFEEMGMCVETDMELLVCTFCIKFSRHVKKLQLIEGRQHRSTWSPTMVVLFRWVPVTDAYWQILFSVLKVTRNLKELDLSGNSLSHSAVKSLCKTLRRPRCLLETLRLAGCGLTAEDCKDLAFGLRANQTLTELDLSFNVLTDAGAKHLCQRLRQPSCKLQRLQLVSCGLTSDCCQDLASVLSASPSLKELDLQQNNLDDVGVRLLCEGLRHPACKLIRLGLDQTTLSDEMRQELRALEQEKPQLLIFSRRKPSVMTPTEGLDTGEMSNSTSSLKRQRLGSERAASHVAQANLKLLDVSKIFPIAEIAEESSPEVVPVELLCVPSPASQGDLHTKPLGTDDDFWGPTGPVATEVVDKEKNLYRVHFPVAGSYRWPNTGLCFVMREAVTVEIEFCVWDQFLGEINPQHSWMVAGPLLDIKAEPGAVEAVHLPHFVALQGGHVDTSLFQMAHFKEEGMLLEKPARVELHHIVLENPSFSPLGVLLKMIHNALRFIPVTSVVLLYHRVHPEEVTFHLYLIPSDCSIRKAIDDLEMKFQFVRIHKPPPLTPLYMGCRYTVSGSGSGMLEILPKELELCYRSPGEDQLFSEFYVGHLGSGIRLQVKDKKDETLVWEALVKPGDLMPATTLIPPARIAVPSPLDAPQLLHFVDQYREQLIARVTSVEVVLDKLHGQVLSQEQYERVLAENTRPSQMRKLFSLSQSWDRKCKDGLYQALKETHPHLIMELWEKGSKKGLLPLSS
binding (CARD8-T60-FLAG (human)): binds
binding [4]: binds

Next, values leading:

binding [1]: binds
binding [2]: binds
B1: CARD8-T60-Strep (natural protein, human, UniProt Q9Y2G2-5 1-537, looked up)
chain: MEKKECPEKSSSSEEELPRRDSGSSRNIDASKLIRLQGSRKLLVDNSIRELQYTKTGIFFQAEACVTNDTVYRELPCVSETLCDISHFFQEDDETEAEPLLFRAVPECQLSGGDIPSVSEEQESSEGQDSGDICSEENQIVSSYASKVCFEIEEDYKNRQFLGPEGNVDVELIDKSTNRYSVWFPTAGWYLWSATGLGFLVRDEVTVTIAFGSWSQHLALDLQHHEQWLVGGPLFDVTAEPEEAVAEIHLPHFISLQAGEVDVSWFLVAHFKNEGMVLEHPARVEPFYAVLESPSFSLMGILLRIASGTRLSIPITSNTLIYYHPHPEDIKFHLYLVPSDALLTKAIDDEEDRFHGVRLQTSPPMEPLNFGSSYIVSNSANLKVMPKELKLSYRSPGEIQHFSKFYAGQMKEPIQLEITEKRHGTLVWDTEVKPVDLQLVAASAPPPFSGAAFVKENHRQLQARMGDLKGVLDDLQDNEVLTENEKELVEQEKTRQSKNEALLSMVEKKGDLALDVLFRSISERDPYLVSYLRQQNL
notes: CARD8, T60 isoform, human, UniProt Q9Y2G2-5, full length; The host of the purified protein is told only as a mammalian expression system; also called CARD8-Strep; T60 isoform of CARD8; source: HEK 293T, transiently transfected, in lysate; also purified using mammalian protein expression system

binding [3]: binds
B2: NLRP1-Strep, Q9C000-1 1-1473 (protein)
chain: MAGGAWGRLACYLEFLKKEELKEFQLLLANKAHSRSSSGETPAQPEKTSGMEVASYLVAQYGEQRAWDLALHTWEQMGLRSLCAQAQEGAGHSPSFPYSPSEPHLGSPSQPTSTAVLMPWIHELPAGCTQGSERRVLRQLPDTSGRRWREISASLLYQALPSSPDHESPSQESPNAPTSTAVLGSWGSPPQPSLAPREQEAPGTQWPLDETSGIYYTEIREREREKSEKGRPPWAAVVGTPPQAHTSLQPHHHPWEPSVRESLCSTWPWKNEDFNQKFTQLLLLQRPHPRSQDPLVKRSWPDYVEENRGHLIEIRDLFGPGLDTQEPRIVILQGAAGIGKSTLARQVKEAWGRGQLYGDRFQHVFYFSCRELAQSKVVSLAELIGKDGTATPAPIRQILSRPERLLFILDGVDEPGWVLQEPSSELCLHWSQPQPADALLGSLLGKTILPEASFLITARTTALQNLIPSLEQARWVEVLGFSESSRKEYFYRYFTDERQAIRAFRLVKSNKELWALCLVPWVSWLACTCLMQQMKRKEKLTLTSKTTTTLCLHYLAQALQAQPLGPQLRDLCSLAAEGIWQKKTLFSPDDLRKHGLDGAIISTFLKMGILQEHPIPLSYSFIHLCFQEFFAAMSYVLEDEKGRGKHSNCIIDLEKTLEAYGIHGLFGASTTRFLLGLLSDEGEREMENIFHCRLSQGRNLMQWVPSLQLLLQPHSLESLHCLYETRNKTFLTQVMAHFEEMGMCVETDMELLVCTFCIKFSRHVKKLQLIEGRQHRSTWSPTMVVLFRWVPVTDAYWQILFSVLKVTRNLKELDLSGNSLSHSAVKSLCKTLRRPRCLLETLRLAGCGLTAEDCKDLAFGLRANQTLTELDLSFNVLTDAGAKHLCQRLRQPSCKLQRLQLVSCGLTSDCCQDLASVLSASPSLKELDLQQNNLDDVGVRLLCEGLRHPACKLIRLGLDQTTLSDEMRQELRALEQEKPQLLIFSRRKPSVMTPTEGLDTGEMSNSTSSLKRQRLGSERAASHVAQANLKLLDVSKIFPIAEIAEESSPEVVPVELLCVPSPASQGDLHTKPLGTDDDFWGPTGPVATEVVDKEKNLYRVHFPVAGSYRWPNTGLCFVMREAVTVEIEFCVWDQFLGEINPQHSWMVAGPLLDIKAEPGAVEAVHLPHFVALQGGHVDTSLFQMAHFKEEGMLLEKPARVELHHIVLENPSFSPLGVLLKMIHNALRFIPVTSVVLLYHRVHPEEVTFHLYLIPSDCSIRKAIDDLEMKFQFVRIHKPPPLTPLYMGCRYTVSGSGSGMLEILPKELELCYRSPGEDQLFSEFYVGHLGSGIRLQVKDKKDETLVWEALVKPGDLMPATTLIPPARIAVPSPLDAPQLLHFVDQYREQLIARVTSVEVVLDKLHGQVLSQEQYERVLAENTRPSQMRKLFSLSQSWDRKCKDGLYQALKETHPHLIMELWEKGSKKGLLPLSS
